This note sets out measurements from article doi:10.1101/2021.08.02.454712.

No constants are given. Whether binding was seen depends on the method and setting. In cells and extracts the contact can be indirect. These calls come from enrichment with a bait or labelling near it, and not all partners need be listed. Sequences can lack the tags named with a protein.

The target of the assay is T1, PfHDP-GFP fusion protein (Plasmodium falciparum) (UniProt Q8IL04).
T1 sequence: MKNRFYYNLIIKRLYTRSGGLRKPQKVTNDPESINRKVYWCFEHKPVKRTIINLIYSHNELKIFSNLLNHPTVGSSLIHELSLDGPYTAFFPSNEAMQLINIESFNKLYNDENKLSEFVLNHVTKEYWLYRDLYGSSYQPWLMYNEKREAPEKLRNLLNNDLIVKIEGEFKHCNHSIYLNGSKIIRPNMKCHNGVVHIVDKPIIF
Put plainly: affinity purification with mass spectrometry.
For the substance “Trx2, endogenous in P. falciparum (from UniProt Q8IDP4 24-157)”, the binding result was “binds”.

On to PTEX88, endogenous in P. falciparum, for which the binding result is listed as “binds”.

In the case of “falcipain 2, endogenous in P. falciparum (from UniProt Q8I6U4) (enzyme)”, the binding entry was “binds”.
